The nature of the data set: Treatment trials: boric acid equivalent content (BAE) of treated timber by titration. The conditions noted are these: Trial 4. Also noted: species or system Pinus radiata.

Values joined by “and” are separate entries in the source; they are usually repeats but may differ in a detail not shown here. Equal entries are not always repeated.

`CCCCCCCCCCCCCCCCOB(OCCCC)OCCCCCCCCCCCCCCCC` [di hexadecanyl,n-butyl borate]: the “BAE concentration in timber by titration” value was 0.15 % m/m and 0.096 % m/m.
